Assay results published in PMC6052347, “Structure and Function of the Campylobacter jejuni Chromosome Replication Origin”.
Construct, isoform or probe ends are uncertain for at least one entry. A weaker result is weaker than the reference pair of the same experiment. Protein sequences can lack the tags named with them.

Target: T1, 6HisCj1509 (UniProt Q0P820)
T1 sequence (looked up, limits assumed): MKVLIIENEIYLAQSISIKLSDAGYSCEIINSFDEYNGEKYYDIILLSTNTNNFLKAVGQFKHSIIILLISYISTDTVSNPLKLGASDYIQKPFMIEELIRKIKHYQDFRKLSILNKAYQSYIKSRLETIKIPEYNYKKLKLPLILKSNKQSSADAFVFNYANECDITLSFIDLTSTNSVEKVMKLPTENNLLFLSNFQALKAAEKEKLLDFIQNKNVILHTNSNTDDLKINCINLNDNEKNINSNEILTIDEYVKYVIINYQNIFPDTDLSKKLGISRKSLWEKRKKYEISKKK
Experiment: EMSA
Conditions: lower complex intensity than box 2; EMSA: room temperature, 15 min, up to 30 nM DnaA or 400 nM Cj1509, 4% PAGE in 1x TBE; box probes 0.4 uM; binding buffer not given (as in Jaworski 2016); recombinant protein; protein details: N-terminal 6xHis (pET28a); label: FAM 5' on E7

Sequence	binding result
GTGCCCTGGTCTGG / TTTGAAGAAAGTATCAATTTCAACA / TGTTGAAATTGATACTTTCTTCAAACCAGACCAGGGCAC [Cj1509 box 3 probe (E7-E12-E13)]	binds more weakly
GTGCCCTGGTCTGG / TTTGAAGAATTTCACAATTTCAACA / TGTTGAAATTGTGAAATTCTTCAAACCAGACCAGGGCAC [Cj1509 box 1 probe (E7-E8-E9)]	binds more weakly
